Only a part is listed here, and it is no random draw. At the low end of the ranking, values are background and their order means little.
target: ETV7 (UniProt Q9Y603); test: DAPPL (digital affinity profiling via proximity ligation, sequencing); details: 10 mM Tris-HCl pH 7.5, 50 mM NaCl, 1 mM DTT, 4% glycerol, room temperature, 30 min; GST-TFs on glutathione beads, 16-mer random dsDNA library, 0.1% …; high values mean tight binding; double strand, one strand shown; scale: fold enrichment (6-mer frequency, TF over GST control)

Chains of the proteins cited; added tags and fusions are not shown. Lines headed by an entry give the natural chain unless they say otherwise; changes in a name come on top.
UniProt Q9Y603: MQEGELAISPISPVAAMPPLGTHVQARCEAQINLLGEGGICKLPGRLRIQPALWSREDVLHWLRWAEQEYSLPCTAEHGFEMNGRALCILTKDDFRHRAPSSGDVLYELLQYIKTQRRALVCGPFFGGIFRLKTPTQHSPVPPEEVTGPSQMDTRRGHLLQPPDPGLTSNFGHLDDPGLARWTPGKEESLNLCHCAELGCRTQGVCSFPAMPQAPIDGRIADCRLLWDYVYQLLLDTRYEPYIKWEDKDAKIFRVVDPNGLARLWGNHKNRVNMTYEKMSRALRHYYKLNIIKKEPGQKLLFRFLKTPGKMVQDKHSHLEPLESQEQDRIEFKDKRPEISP

| Sequence | binding signal |
| --- | --- |
| ATAGAT | 1.17 |
| ATCCCA | 1.2 |
| ACTCCG | 1.4 |
| CACCTC | 1.17 |
| GCCCAC | 0.979 |
| CCGAAA | 1.24 |
| ATGGGG | 0.888 |
| CACCGG | 0.936 |
| CTTTGT | 1.36 |
| GCCCAA | 0.91 |
| AACTTT | 1.2 |
| AGAATA | 1.08 |
| ATGCCT | 1.26 |
| ACCGCA | 1.12 |
| ATGTGG | 1.08 |
| TTAGCA | 1.19 |
| GACTTC | 2.2 |
| GATTCA | 1.09 |
| CGTAGC | 1.09 |
| GTGACC | 1.3 |

Copied from the entries so far for reference:

| Sequence | binding signal |
| --- | --- |
| CACCGG | 0.936 |
| CTTTGT | 1.36 |

(cont.)

| Sequence | binding signal |
| --- | --- |
| TCCGCC | 1.49 |
| TTCTAT | 1.33 |
| TAATTC | 1.38 |
| TCAAGT | 1.03 |
| TGCCCC | 1.18 |
| CCACCT | 0.99 |
| TGTACG | 1.09 |
| TTTGAT | 1.28 |
| AAACTT | 1.22 |
| CTCCGA | 1.24 |
| CCCCAC | 1.11 |
| GAAGTG | 1.7 |
| CCGGTC | 1.22 |
| TACCGG | 1.36 |
| TGTCCT | 1.4 |
| CGTCGC | 1.23 |
| CTATAG | 0.988 |
| TATGCC | 1.19 |
| CTTGAA | 1.08 |
| CATTAC | 1.03 |

Reference: paper PMC7862700
